Laboratory results taken from PubChem BioAssay AID540276 (National Center for Advancing Translational Sciences (NCATS), 2011).
The campaign covered roughly 300,000 compounds. About 5,400 (1.8%) were called active. The shares of active, inactive and inconclusive entries below differ from those in the screen. The call rests on the fitted dose curve; tested in HEK293 cells. Potencies of inconclusive entries are doubtful fits and often do not repeat.

Assay: qHTS for inhibitors of binding or entry into cells for Marburg Virus
Conditions: Marburg virus pseudotyped entry inhibition, cell reporter; activity change, negative = inhibition: at 37.8 µM (top of the series) unless noted
On the % scale 0 is the no-effect control and ±100 the full control effect; potency means the concentration at half of the fitted maximal effect.

Row | SMILES | Potency | activity change, negative = inhibition
1 | CC(C)COC(=O)N1CC(O)CC1C(=O)Nc1ccc2c(c1)OCO2 (stereo unspecified) | inconclusive: 6.31 µM [activator, partial curve, poor fit] | –
2 | CCC(C)(C)n1nnnc1C(c1ccc2ncccc2c1)N1CCN(c2nc3ccccc3s2)CC1 (stereo unspecified) | inconclusive: 14.6 µM [inhibitor, partial curve, poor fit] | –
3 | CN(C)c1ccc(C=c2c3ccccc3n3c2cc(-c2ccc(Cl)cc2)[n+]3C)cc1 | inconclusive: 35.5 µM [inhibitor, single point] | –
4 | CCOc1cccc(CNCCCSc2nnnn2C)c1 | inconclusive: 1.12 µM [inhibitor, partial curve, poor fit] | –
5 | O=C(CN1C(=O)NC2(CCCC2)C1=O)Nc1cc(C(F)(F)F)ccc1N1CCOCC1 | inconclusive: 1.26 µM [inhibitor, single point] | –
6 | Cc1nc(C)c(-c2ccc(SCC(=O)Nc3cccc(Cl)c3C)nn2)s1 | inconclusive: 6.31 µM [inhibitor, full curve, poor fit] | –
7 | CC(=O)Nc1ccc(S(=O)(=O)Nc2cc(C)cn(Cc3ccccc3)c2=O)cc1 | – | inconclusive: 2.81% [activator] [at 46.1 µM]
8 | COC(=O)c1sccc1NC(=O)C1C2C=CC(O2)C1C(=O)O (stereo unspecified) | inactive | –
9 | Cc1cccc(-n2c(O)c(/C=N/Nc3nc4c(c(=O)n(C)c(=O)n4C)n3C)c(=O)[nH]c2=S)c1 | inconclusive: 0.1 µM [activator, full curve, poor fit] | –
10 | CC(=O)Nc1cccc(Oc2ccc([N+](=O)[O-])cc2Cl)c1 | inconclusive: 35.5 µM [inhibitor, single point] | –
11 | CC(=O)OCCCN(C)CC/C=C1/c2ccccc2CSc2ccccc21 | inconclusive: 35.5 µM [inhibitor, single point] | –
12 | Cc1cc(C)c(C)c(OCC(=O)O/N=C(\N)c2ccncc2)c1 | inconclusive: 11.2 µM [inhibitor, partial curve, poor fit] | –
13 | O=C(OCc1nc2ccccc2[nH]1)C12CC3CC(CC(C3)C1)C2 | inconclusive: 0.259 µM [inhibitor, full curve, poor fit] | –
14 | Cc1ccc2[nH]c(=O)c(CN(CCCN3CCOCC3)C(=O)Nc3ccc(Cl)cc3)cc2c1 | inconclusive: 29.1 µM [inhibitor, single point] | –
15 | CSc1nnc2c(n1)OC(c1ccccn1)N(C(C)=O)c1ccccc1-2 (stereo unspecified) | inconclusive: 6.31 µM [activator, full curve, poor fit] | –
16 | CC(=O)N1CCC2(CC1)C(C#N)=C(N)OC1=C2C(=O)CC(C)(C)C1 | inactive | –

Taken from above.
`Cc1cc(C)c(C)c(OCC(=O)O/N=C(\N)c2ccncc2)c1` – Potency: inconclusive: 11.2 µM [inhibitor, partial curve, poor fit]
`O=C(CN1C(=O)NC2(CCCC2)C1=O)Nc1cc(C(F)(F)F)ccc1N1CCOCC1` – Potency: inconclusive: 1.26 µM [inhibitor, single point]
